In the supplement of paper PMC7661543:
± gives the standard deviation of the averaged measurements. Differences between knockout arms are mostly noise.

What was measured:
Assay in all cases: relative cell number vs DMSO control (72 h) (% of DMSO); higher = less growth inhibition (more cells)
[1] = system: ZR-75-1
Procedure: (§1)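 QMAP-Seq: a pool of 5 breast cancer cell lines (ZR-75-1, SKBR3, HCC-38, MDA-MB-231, BT-20), each carrying 12 doxycycline-inducible Cas9 sgRNA perturbations (11 knockouts plus non-targeting sgNT), was treated with compounds for 72 h at four 10-fold doses (10 nM-10 uM or 1 nM-1 uM range). Barcodes were amplified and sequenced, and cell number was interpolated from 293T spike-in standard curves. The result is expressed as % of the median of DMSO wells. Two biological replicates.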

[2] = system: SKBR3
Procedure: as §1

[3] = system: MDA-MB-231
Procedure: as §1

Cn1cnc2c(F)c(Nc3ccc(Br)cc3Cl)c(C(=O)NOCCO)cc21 [Selumetinib]
relative cell number
Conditions | [1] | [2] | [3]
sgRNA knockout: sgATF3, 10 nM | 73.4 ± 15 | 89.9 ± 1.9 | 107 ± 10
sgRNA knockout: sgATF3, 100 nM | 58.7 ± 0.77 | 84.4 ± 32 | 75.9 ± 2.6
sgRNA knockout: sgATF3, 1000 nM | 87.6 ± 7.6 | 91.1 ± 3 | 82 ± 17
sgRNA knockout: sgATF3, 10000 nM | 72.9 ± 2 | 88.2 ± 3.7 | 55.4 ± 12
sgRNA knockout: sgATF4, 10 nM | 94.1 ± 5.7 | 104 ± 2.3 | 117 ± 16
sgRNA knockout: sgATF4, 100 nM | 61.43 ± 0.14 | 85.1 ± 21 | 69.6 ± 4.8
sgRNA knockout: sgATF4, 1000 nM | 93.1 ± 1.6 | 91.2 ± 1.6 | 70.8 ± 2.3
sgRNA knockout: sgATF4, 10000 nM | 78 ± 29 | 76.3 ± 20 | 42.9 ± 7.1
sgRNA knockout: sgATF6, 10 nM | 88.9 ± 19 | 93.8 ± 28 | 111 ± 17
sgRNA knockout: sgATF6, 100 nM | 50.6 ± 3.6 | 81 ± 6.4 | 103 ± 10
sgRNA knockout: sgATF6, 1000 nM | 72.3 ± 40 | 105 ± 18 | 82.7 ± 37
sgRNA knockout: sgATF6, 10000 nM | 63.5 ± 18 | 81.7 ± 26 | 50 ± 24
sgRNA knockout: sgATG7, 10 nM | 101 ± 28 | 95.8 ± 12 | 97.5 ± 13
sgRNA knockout: sgATG7, 100 nM | 86.1 ± 12 | 98.88 ± 0.15 | 103 ± 11
sgRNA knockout: sgATG7, 1000 nM | 75.7 ± 26 | 99.8 ± 8.2 | 87.3 ± 7.5
sgRNA knockout: sgATG7, 10000 nM | 71.8 ± 5.9 | 90.89 ± 0.83 | 55.5 ± 0.87
sgRNA knockout: sgERN1, 10 nM | 80.2 ± 16 | 100 ± 4 | 91.1 ± 25
sgRNA knockout: sgERN1, 100 nM | 52.24 ± 0.24 | 81.4 ± 7.5 | 77.7 ± 9.6
sgRNA knockout: sgERN1, 1000 nM | 94.1 ± 36 | 94.3 ± 3.2 | 61.4 ± 28
sgRNA knockout: sgERN1, 10000 nM | 87.2 ± 16 | 83.46 ± 0.4 | 46.4 ± 8.2
sgRNA knockout: sgHSF1, 10 nM | – | 110 ± 3.4 | 117 ± 39
sgRNA knockout: sgHSF1, 100 nM | – | 80.9 ± 21 | 77.9 ± 8.9
sgRNA knockout: sgHSF1, 1000 nM | – | 92.3 ± 18 | 72.8 ± 11
sgRNA knockout: sgHSF1, 10000 nM | – | 76.3 ± 14 | 66 ± 7.7
sgRNA knockout: sgHSF2, 10 nM | 91 ± 17 | 85.9 ± 17 | 83.1 ± 6.9
sgRNA knockout: sgHSF2, 100 nM | 92.5 ± 7.6 | 80.5 ± 11 | 80.9 ± 22
sgRNA knockout: sgHSF2, 1000 nM | 83.7 ± 24 | 97.5 ± 8.7 | 79.1 ± 22
sgRNA knockout: sgHSF2, 10000 nM | 70.7 ± 7 | 68.8 ± 4.3 | 51.4 ± 7.2
sgRNA knockout: sgKEAP1, 10 nM | – | 87.9 ± 3.5 | 98.8 ± 10
sgRNA knockout: sgKEAP1, 100 nM | – | 97.2 ± 15 | 85.44 ± 0.81
sgRNA knockout: sgKEAP1, 1000 nM | – | 99.2 ± 14 | 91.4 ± 15
sgRNA knockout: sgKEAP1, 10000 nM | – | 65.5 ± 9.5 | 58.2 ± 4.7
sgRNA knockout: sgNFE2L2, 10 nM | 106 ± 20 | 89.4 ± 11 | 94.2 ± 22
sgRNA knockout: sgNFE2L2, 100 nM | 90.1 ± 12 | 93.6 ± 13 | 103 ± 21
sgRNA knockout: sgNFE2L2, 1000 nM | 108 ± 6.9 | 111 ± 29 | 86.4 ± 21
sgRNA knockout: sgNFE2L2, 10000 nM | 68.3 ± 15 | 93.9 ± 7.9 | 37.7 ± 3.7
sgRNA knockout: sgSLC35F2, 10 nM | 80.2 ± 34 | 71 ± 5.8 | 102 ± 30
sgRNA knockout: sgSLC35F2, 100 nM | 80.7 ± 33 | 84.3 ± 10 | 80.3 ± 20
sgRNA knockout: sgSLC35F2, 1000 nM | 54.7 ± 40 | 85 ± 8.5 | 96.1 ± 7.7
sgRNA knockout: sgSLC35F2, 10000 nM | 52.8 ± 44 | 73.2 ± 3.1 | 70.9 ± 4.4
sgRNA knockout: sgXBP1, 10 nM | 99.7 ± 24 | 101 ± 30 | 99.2 ± 1.4
sgRNA knockout: sgXBP1, 100 nM | 76.3 ± 7.6 | 107 ± 19 | 81.4 ± 15
sgRNA knockout: sgXBP1, 1000 nM | 86.9 ± 8.3 | 103 ± 5.6 | 68.7 ± 16
sgRNA knockout: sgXBP1, 10000 nM | 69.8 ± 6.3 | 70 ± 2.3 | 49.43 ± 0.15
